# The list shows a part of the results, in another mix than the full data. Calls of active or inactive are those of the source.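 The calls were made as follows: active = inhibition above the batch mean plus 3 SD, and confirmed as a hit on visual image review (cut at about 43% in these data); inconclusive = passes the inhibition cutoff but fails visual image review; inactive = the rest.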
# Assay: E-selectin induction blockers in HUVEC – imaging, immunofluorescence, high content, primary screen (AID 1246);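 also: 0% = TNF-stimulated DMSO wells and 100% = unstimulated control wells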
# Settings: HUVEC TNFa-induced E-selectin immunofluorescence, at 2 µM, hits give high values
row,SMILES,inhibition
1,CN[C@H]1C[C@H]2O[C@@](C)([C@H]1OC)n1c3ccccc3c3c4c(c5c6ccccc6n2c5c31)C(=O)NC4,active: 98.7%

# — PubChem BioAssay AID1246 (Columbia University Molecular Screening Center, 2008)
